# In the supplement of paper PMC11732987, “Enantioselective OTUD7B fragment discovery through chemoproteomics screening and high-throughput optimisation” (Communications Chemistry, 2025):
# The chains behind the UniProt entries cited, without tags or fusion partners. Where a name states a change or a piece, a line headed by the entry shows the natural chain unless it says otherwise. Residues count along the entry.
# UniProt P42356, 8-28: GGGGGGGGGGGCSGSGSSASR
# UniProt Q92576, whole entry, looked up: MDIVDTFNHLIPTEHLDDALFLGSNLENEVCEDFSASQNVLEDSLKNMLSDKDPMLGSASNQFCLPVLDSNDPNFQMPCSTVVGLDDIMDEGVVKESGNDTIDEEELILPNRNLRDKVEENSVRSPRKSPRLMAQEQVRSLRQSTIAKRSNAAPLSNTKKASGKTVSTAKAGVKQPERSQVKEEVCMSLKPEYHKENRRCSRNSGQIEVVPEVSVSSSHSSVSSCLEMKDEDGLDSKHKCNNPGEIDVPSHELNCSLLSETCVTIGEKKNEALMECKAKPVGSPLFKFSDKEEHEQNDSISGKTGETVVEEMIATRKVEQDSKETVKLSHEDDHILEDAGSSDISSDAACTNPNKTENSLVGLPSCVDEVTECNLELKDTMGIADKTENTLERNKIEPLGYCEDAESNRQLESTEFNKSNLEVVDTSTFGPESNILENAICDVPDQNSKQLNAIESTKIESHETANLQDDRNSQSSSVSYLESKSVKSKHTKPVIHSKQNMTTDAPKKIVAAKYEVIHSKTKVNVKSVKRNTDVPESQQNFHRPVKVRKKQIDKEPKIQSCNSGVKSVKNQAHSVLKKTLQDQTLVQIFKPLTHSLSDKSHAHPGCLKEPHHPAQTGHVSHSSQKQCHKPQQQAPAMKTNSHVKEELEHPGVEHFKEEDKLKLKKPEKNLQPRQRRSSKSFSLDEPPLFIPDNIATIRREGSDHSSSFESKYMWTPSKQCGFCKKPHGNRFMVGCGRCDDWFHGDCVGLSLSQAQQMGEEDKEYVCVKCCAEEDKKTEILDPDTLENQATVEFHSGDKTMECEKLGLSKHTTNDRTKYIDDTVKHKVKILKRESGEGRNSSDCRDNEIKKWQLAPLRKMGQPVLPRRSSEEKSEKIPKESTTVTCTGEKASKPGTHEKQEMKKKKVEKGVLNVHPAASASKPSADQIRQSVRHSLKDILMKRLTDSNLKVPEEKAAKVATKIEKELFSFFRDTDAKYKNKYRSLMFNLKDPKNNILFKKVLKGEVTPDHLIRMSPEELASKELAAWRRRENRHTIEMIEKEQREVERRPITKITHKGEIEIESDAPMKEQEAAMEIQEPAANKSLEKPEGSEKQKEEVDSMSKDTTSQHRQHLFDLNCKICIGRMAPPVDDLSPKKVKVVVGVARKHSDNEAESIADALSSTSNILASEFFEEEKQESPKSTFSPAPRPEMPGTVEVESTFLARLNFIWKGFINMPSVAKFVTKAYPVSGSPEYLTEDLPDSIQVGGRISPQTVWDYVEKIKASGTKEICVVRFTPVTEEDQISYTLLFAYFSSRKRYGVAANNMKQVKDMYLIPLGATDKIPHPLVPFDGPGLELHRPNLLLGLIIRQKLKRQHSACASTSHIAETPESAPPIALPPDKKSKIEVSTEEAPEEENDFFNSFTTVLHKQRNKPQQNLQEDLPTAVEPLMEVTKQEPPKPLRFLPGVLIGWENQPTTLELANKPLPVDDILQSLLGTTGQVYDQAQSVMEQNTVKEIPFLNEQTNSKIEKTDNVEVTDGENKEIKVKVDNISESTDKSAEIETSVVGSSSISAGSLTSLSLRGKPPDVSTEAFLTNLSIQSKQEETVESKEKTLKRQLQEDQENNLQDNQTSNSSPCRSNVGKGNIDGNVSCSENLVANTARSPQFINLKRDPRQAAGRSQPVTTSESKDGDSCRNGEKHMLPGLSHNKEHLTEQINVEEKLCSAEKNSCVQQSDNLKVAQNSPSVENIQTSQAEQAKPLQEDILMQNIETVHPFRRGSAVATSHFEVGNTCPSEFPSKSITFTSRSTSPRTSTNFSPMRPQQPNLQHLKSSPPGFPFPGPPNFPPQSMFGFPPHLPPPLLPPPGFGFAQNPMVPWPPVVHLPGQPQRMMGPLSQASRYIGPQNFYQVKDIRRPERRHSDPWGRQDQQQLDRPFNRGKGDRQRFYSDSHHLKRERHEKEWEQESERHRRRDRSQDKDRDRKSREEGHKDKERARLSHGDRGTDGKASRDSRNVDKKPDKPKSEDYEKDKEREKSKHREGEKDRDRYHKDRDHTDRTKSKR
# UniProt Q99570, 892-917: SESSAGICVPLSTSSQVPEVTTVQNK
# UniProt Q99570, whole entry, looked up: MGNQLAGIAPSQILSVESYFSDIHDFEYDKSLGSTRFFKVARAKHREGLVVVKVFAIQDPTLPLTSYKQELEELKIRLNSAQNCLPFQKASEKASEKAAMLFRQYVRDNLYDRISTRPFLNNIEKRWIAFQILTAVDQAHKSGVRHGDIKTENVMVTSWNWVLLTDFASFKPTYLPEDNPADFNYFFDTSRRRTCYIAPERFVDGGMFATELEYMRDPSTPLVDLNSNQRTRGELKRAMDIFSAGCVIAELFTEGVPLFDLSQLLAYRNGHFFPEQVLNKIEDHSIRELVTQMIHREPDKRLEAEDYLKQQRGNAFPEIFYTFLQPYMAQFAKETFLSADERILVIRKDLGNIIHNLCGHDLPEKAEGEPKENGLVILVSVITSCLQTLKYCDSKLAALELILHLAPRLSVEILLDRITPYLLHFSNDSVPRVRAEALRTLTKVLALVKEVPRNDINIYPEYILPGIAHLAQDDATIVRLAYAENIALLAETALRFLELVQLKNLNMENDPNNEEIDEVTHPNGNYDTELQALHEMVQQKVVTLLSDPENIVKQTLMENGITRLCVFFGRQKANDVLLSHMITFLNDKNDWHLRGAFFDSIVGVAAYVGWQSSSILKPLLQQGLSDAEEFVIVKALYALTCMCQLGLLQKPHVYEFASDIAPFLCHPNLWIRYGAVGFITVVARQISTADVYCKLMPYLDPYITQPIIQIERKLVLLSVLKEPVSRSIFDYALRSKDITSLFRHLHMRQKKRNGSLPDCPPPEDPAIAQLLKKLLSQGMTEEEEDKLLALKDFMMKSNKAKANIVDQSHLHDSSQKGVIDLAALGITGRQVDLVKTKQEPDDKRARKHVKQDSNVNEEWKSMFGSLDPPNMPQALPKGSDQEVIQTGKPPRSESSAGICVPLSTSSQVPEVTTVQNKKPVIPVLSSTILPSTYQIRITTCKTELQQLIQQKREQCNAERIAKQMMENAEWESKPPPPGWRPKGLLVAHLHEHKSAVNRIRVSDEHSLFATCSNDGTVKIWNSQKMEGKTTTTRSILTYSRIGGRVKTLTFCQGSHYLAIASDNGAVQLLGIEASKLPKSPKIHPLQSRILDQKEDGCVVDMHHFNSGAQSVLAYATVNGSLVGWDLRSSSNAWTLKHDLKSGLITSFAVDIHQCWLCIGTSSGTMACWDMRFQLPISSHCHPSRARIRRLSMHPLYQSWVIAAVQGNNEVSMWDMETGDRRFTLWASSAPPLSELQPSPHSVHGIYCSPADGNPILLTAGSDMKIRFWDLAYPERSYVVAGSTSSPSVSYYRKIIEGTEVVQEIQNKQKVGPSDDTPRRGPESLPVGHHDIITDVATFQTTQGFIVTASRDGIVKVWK
# UniProt Q9Y2S7: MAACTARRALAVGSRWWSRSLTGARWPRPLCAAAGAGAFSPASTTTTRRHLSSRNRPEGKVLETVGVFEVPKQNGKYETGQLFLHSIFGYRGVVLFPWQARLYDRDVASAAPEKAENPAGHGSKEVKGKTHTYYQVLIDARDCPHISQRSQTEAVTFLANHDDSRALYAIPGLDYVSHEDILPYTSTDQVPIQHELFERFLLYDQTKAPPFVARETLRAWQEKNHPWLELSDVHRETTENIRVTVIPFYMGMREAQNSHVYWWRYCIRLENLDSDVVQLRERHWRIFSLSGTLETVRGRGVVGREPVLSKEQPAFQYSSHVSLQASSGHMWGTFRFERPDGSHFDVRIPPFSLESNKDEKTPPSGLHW
# UniProt O00750, 418-438: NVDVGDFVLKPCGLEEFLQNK
# UniProt Q07864, 1596-1616: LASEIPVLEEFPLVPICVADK
# UniProt Q07864, whole entry, looked up: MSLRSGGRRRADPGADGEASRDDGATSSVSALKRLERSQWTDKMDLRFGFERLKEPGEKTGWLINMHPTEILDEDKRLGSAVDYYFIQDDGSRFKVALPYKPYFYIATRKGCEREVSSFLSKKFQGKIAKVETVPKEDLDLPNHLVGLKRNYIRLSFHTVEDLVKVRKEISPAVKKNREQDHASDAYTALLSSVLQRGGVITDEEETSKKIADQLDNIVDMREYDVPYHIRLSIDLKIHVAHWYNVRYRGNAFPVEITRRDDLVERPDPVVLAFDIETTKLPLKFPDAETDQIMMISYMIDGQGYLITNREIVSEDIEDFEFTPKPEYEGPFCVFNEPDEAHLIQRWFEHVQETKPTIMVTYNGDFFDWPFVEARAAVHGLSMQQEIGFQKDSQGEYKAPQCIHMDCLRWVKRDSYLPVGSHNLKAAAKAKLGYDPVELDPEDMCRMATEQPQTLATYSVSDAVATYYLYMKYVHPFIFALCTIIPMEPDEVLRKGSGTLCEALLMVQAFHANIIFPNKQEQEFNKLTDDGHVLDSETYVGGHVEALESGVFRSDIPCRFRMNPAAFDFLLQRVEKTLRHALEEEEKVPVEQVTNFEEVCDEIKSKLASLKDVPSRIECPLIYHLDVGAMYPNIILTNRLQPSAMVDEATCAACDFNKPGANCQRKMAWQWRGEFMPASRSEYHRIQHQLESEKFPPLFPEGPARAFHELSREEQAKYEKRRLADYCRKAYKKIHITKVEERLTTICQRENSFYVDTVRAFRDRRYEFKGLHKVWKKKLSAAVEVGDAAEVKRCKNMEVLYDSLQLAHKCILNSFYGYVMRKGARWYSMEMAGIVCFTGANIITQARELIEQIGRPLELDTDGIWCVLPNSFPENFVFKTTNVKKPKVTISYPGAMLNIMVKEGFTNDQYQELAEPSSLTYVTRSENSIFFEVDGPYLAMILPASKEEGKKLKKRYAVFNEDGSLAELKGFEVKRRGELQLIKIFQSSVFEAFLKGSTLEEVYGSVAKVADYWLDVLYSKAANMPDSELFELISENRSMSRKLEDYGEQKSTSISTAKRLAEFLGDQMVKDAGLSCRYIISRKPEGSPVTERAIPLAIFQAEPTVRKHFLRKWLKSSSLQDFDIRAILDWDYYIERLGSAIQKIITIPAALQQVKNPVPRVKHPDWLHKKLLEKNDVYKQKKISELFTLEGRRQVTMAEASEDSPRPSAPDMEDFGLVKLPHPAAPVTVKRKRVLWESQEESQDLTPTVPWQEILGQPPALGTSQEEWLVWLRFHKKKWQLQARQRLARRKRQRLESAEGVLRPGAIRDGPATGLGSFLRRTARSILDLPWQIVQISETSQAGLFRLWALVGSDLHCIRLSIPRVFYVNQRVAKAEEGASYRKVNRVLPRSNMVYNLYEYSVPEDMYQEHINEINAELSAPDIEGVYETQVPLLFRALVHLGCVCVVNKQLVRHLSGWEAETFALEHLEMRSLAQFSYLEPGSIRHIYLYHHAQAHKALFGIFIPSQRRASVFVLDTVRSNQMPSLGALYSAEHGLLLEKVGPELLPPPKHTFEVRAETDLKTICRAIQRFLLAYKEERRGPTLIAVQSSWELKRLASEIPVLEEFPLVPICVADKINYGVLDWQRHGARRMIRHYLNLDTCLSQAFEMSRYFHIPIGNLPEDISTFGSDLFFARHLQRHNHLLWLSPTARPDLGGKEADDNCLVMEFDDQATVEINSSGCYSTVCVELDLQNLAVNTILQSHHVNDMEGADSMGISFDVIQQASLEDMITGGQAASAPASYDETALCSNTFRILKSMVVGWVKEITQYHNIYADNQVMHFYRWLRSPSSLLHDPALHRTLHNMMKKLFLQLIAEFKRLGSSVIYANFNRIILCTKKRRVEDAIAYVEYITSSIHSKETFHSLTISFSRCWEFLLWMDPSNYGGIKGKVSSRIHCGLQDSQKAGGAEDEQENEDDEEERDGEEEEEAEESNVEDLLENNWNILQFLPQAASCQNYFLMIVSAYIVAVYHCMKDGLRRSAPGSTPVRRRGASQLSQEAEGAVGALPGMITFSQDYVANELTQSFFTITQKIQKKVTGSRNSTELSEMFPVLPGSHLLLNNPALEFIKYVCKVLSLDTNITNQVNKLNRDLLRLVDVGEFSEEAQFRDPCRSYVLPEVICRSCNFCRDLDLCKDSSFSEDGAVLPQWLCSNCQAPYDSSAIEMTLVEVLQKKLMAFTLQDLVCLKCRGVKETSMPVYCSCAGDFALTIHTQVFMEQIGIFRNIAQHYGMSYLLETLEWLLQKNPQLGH
# UniProt Q13526, 96-117: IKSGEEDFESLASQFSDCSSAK
# UniProt Q16513, 100-120: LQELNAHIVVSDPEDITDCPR
# UniProt Q7RTV0, whole entry, looked up: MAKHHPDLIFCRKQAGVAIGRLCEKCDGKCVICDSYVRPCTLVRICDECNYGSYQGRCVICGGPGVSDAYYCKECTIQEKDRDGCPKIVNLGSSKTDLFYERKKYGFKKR
# UniProt Q9NVS9: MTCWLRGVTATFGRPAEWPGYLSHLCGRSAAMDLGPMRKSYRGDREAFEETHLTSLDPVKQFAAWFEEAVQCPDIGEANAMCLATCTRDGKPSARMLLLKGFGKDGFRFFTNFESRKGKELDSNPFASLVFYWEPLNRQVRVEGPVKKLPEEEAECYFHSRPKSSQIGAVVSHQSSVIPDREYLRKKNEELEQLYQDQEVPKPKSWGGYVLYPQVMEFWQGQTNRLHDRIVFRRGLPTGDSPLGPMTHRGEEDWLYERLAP
# UniProt O60664, 29-50: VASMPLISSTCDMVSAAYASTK
# The list shows a part of the results. The data scatter; read single values as rough.
# Legend:
# [1] = compound: ClCC(=O)N[C@@H]1CCCc2ccccc12; assay: log2 mean competition ratio of IA-DTB cysteine labelling (DMSO/compound) (log2 ratio); higher = stronger cysteine engagement by compound; settings: treatment time: 4 h, cell line lysate: HEK293T
# Experimental: (§1)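 IA-DTB competitive cysteine chemoproteomics in HEK293T RIPA lysate. Lysates were treated with compound 29 or 30 at 50 or 200 µM for 4 h, then IA-DTB (500 µM, 1 h), trypsin-digested, NeutrAvidin-enriched and analysed by diaPASEF. Competition ratio = intensity DMSO / intensity compound (n=4 treated, n=64 DMSO); binding: mean log2 CR ≥ 1 and p ≤ 0.05 plus QC filters. Target is the cysteine site.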
# [2] = compound: ClCC(=O)N[C@H]1CCCc2ccccc12; assay: as above; settings: treatment time: 4 h, cell line lysate: HEK293T
# Experimental: as §1
Target,log2 mean competition ratio ([1]; 50 µM),log2 mean competition ratio ([1]; 200 µM),log2 mean competition ratio ([2]; 50 µM),log2 mean competition ratio ([2]; 200 µM)
POLD1 C193 (UniProt P28340),0.165,0.169,0.612,-0.116
PKM C49,-0.117,-0.274,-0.0945,-0.0313
PKN3 C131 (UniProt Q6P5Z2),-0.247,-0.0157,-0.224,0.0522
PI4KA C19 (UniProt P42356),-0.235,0.231,-0.422,0.287
POLR1B C855 (UniProt Q9H9Y6),-0.187,-0.0814,-0.438,-0.145
PHF3 C1709 (UniProt Q92576),0.465,0.433,0.369,0.359
PHF3 C276 (UniProt Q92576),-0.354,0.38,-0.227,0.554
POC1B C306 (UniProt Q8TC44),-0.215,-0.0398,0.361,-0.0783
PKN3 C288 (UniProt Q6P5Z2),0.442,-0.0971,-0.205,-0.113
PMM1 C145 (UniProt Q92871),-0.0783,0.116,0.144,0.136
POLR1B C689 (UniProt Q9H9Y6),0.0742,0.144,0.0519,0.0948
PLA2G15 C355 (UniProt Q8NCC3),-0.198,-0.0227,-0.0523,0.0674
POLD2 C83 (UniProt P49005),0.245,0.0677,-0.0735,0.0876
PNO1 C226 (UniProt Q9NRX1),0.0866,-0.1,-0.049,-0.00145
PIK3R4 C899 (UniProt Q99570),-0.303,-0.171,0.38,-0.147
PIAS3 C327,-0.113,-0.134,-0.429,-0.0166
PIK3C2A C669 (UniProt O00443),-0.0375,0.131,-0.13,0.11
PLCH1 C1279 (UniProt Q4KWH8),0.0125,-0.269,0.659,0.0848
PMM1 C16 (UniProt Q92871),-0.0958,-0.395,0.16,0.191
PI4KA C1761 (UniProt P42356),0.00925,-0.2,0.574,0.127
POLDIP2 C143 (UniProt Q9Y2S7),0.025,-0.135,-0.00642,-0.081
POLR1B C307 (UniProt Q9H9Y6),-0.103,-0.0204,-0.058,-0.00689
POLR1A C1562 (UniProt O95602),-0.0108,-0.109,-0.478,-0.26
PHYHD1 C49 (UniProt Q5SRE7),0.11,0.222,-0.218,0.236
PLAT C492,-0.0488,0.313,0.00105,0.368
PLEKHA3 C216 (UniProt Q9HB20),-0.183,0.377,-0.214,0.204

Target,log2 mean competition ratio ([1]; 50 µM),log2 mean competition ratio ([1]; 200 µM),log2 mean competition ratio ([2]; 50 µM),log2 mean competition ratio ([2]; 200 µM)
PKP4 C492 (UniProt Q99569),0.0524,0.206,-0.045,0.0929
POLG C760,-0.0383,-0.0267,0.609,0.0862
PIGT C182,,,-0.121,-0.0202
PLAA C193 (UniProt Q9Y263),,,0.0928,-0.275
PLCG1 C646 (UniProt P19174),-0.101,0.00372,-0.0655,0.101
PLK1 C67 (UniProt P53350),,,0.0732,0.00947
POLD1 C1058 (UniProt P28340),0.0157,0.127,0.163,0.0961
PLXNA1 C1525 (UniProt Q9UIW2),,,-0.286,0.141
PHKG2 C201 (UniProt P15735),,,-0.351,-0.131
PLCXD1 C153 (UniProt Q9NUJ7),,,,0.031
PLOD1 C680 (UniProt Q02809),,,-0.078,0.579
PIK3R4 C955 (UniProt Q99570),0.00396,0.374,-0.0528,0.308
POLM C222,,,-0.252,-0.154
PLPP6 C55 (UniProt Q8IY26),-0.137,0.223,0.12,0.235
PIK3C2B C429 (UniProt O00750),0.536,0.00281,0.0439,-0.295
POLE C1612 (UniProt Q07864),,,0.365,-0.776
PNKP C353 (UniProt Q96T60),,,-0.281,0.0766
PLEKHG4 C26 (UniProt Q58EX7),0.453,0.468,0.19,0.154
POLE C747 (UniProt Q07864),,,0.278,0.00854
POLR1G C14,,,,-0.0814
PITX1 C278 (UniProt P78337),,,0.0552,0.11
PLD2 C736,,,,-0.36
PIGT C272,-0.119,-0.0415,-0.0138,-0.04
PIN1 C113 (UniProt Q13526),,,0.186,0.239
PIAS2 C490 (UniProt O75928),,0.00444,0.201,0.136
PKN2 C338 (UniProt Q16513),,,-0.0174,0.0376

Target,log2 mean competition ratio ([1]; 50 µM),log2 mean competition ratio ([1]; 200 µM),log2 mean competition ratio ([2]; 50 µM),log2 mean competition ratio ([2]; 200 µM)
PLEKHG3 C30,-0.147,0.116,-0.476,0.145
POLR1G C150,0.3,-0.138,0.324,-0.0505
PHF5A C75 (UniProt Q7RTV0),0.174,-0.394,0.442,-0.295
PNN C249 (UniProt Q9H307),0.147,0.198,0.311,0.158
PNPO C156 (UniProt Q9NVS9),,,0.0244,-0.0125
PLA2G4A C726 (UniProt P47712),,,-0.0979,-0.145
PKN2 C118 (UniProt Q16513),,,0.143,0.0404
PLIN3 C39 (UniProt O60664),0.285,0.237,0.347,0.198
PHKA2 C681 (UniProt P46019),-0.068,-0.219,0.63,-0.134
PMS1 C457 (UniProt P54277),,,0.684,0.205
PIGX C77 (UniProt Q8TBF5),0.19,0.335,0.019,-0.0651
PHF3 C885 (UniProt Q92576),,,-0.211,-0.0486
POC1A C5 (UniProt Q8NBT0),,,,0.00216
PIAS3 C620,,,-0.21,0.246
PMPCB C419 (UniProt O75439),,,0.0395,0.878
PHKB C348 (UniProt Q93100),,,0.0994,-0.143
PML C227 (UniProt P29590),,,-0.186,-0.00348
PLEKHA7 C972 (UniProt Q6IQ23),,,-0.0951,0.0734
POLK C8 (UniProt Q9UBT6),,,-0.715,0.24
PLCG2 C624 (UniProt P16885),,,0.665,-0.125
PIAS2 C425 (UniProt O75928),,,-0.329,-0.222
PKN2 C394 (UniProt Q16513),,,-0.51,0.248
PIP4K2A C343 (UniProt P48426),,,-0.342,-0.324
POLL C241,,,-0.0433,-0.271
PIP4K2B C5 (UniProt P78356),,,0.349,-0.0629
POGZ C1267 (UniProt Q7Z3K3),,,0.638,0.0583

Target,log2 mean competition ratio ([1]; 50 µM),log2 mean competition ratio ([1]; 200 µM),log2 mean competition ratio ([2]; 50 µM),log2 mean competition ratio ([2]; 200 µM)
POLR2A C1159,,,-0.196,0.0302
PLIN3 C60 (UniProt O60664),,,0.0593,0.109
POGLUT1 C102 (UniProt Q8NBL1),,,-0.142,0.133
PMM2 C136 (UniProt O15305),,,-0.0752,0.00449
PIK3R4 C693 (UniProt Q99570),,,0.179,0.214
PIK3R4 C84 (UniProt Q99570),,,0.127,0.0163
PHF3 C186 (UniProt Q92576),,,0.064,-0.176
POLE C1076 (UniProt Q07864),,,-0.227,0.139
POLR1B C1070 (UniProt Q9H9Y6),,,0.35,-0.434
PIBF1 C199 (UniProt Q8WXW3),,,0.475,-0.19
PHKB C280 (UniProt Q93100),,,0.587,0.0925
PMS1 C243 (UniProt P54277),,,-0.431,0.275
PIKFYVE C161 (UniProt Q9Y2I7),,,-0.18,0.0847
PNPLA6 C665 (UniProt Q8IY17),,,-0.172,-0.286
POLR1E C138 (UniProt Q9GZS1),,,0.0128,0.0468
PKP4 C591 (UniProt Q99569),,,0.228,0.158
PIK3CA C242 (UniProt P42336),,,0.0835,-0.31
POLD3 C129 (UniProt Q15054),,,0.0804,0.233
PMPCB C62 (UniProt O75439),,,-0.122,0.00379
PIK3C3 C336 (UniProt Q8NEB9),,,0.125,0.052
POLD1 C512 (UniProt P28340),,,0.556,0.194
PIGH C11 (UniProt Q14442),,,0.0828,0.183
PNKP C308 (UniProt Q96T60),,,0.129,0.3
PIAS3 C418,,,-0.0491,-0.231
PLEKHA3 C94 (UniProt Q9HB20),,,0.387,0.315

# A section from the list above:
Target,log2 mean competition ratio ([1]; 50 µM),log2 mean competition ratio ([1]; 200 µM),log2 mean competition ratio ([2]; 50 µM),log2 mean competition ratio ([2]; 200 µM)
PNPO C156 (UniProt Q9NVS9),,,0.0244,-0.0125
PLA2G4A C726 (UniProt P47712),,,-0.0979,-0.145
PKN2 C118 (UniProt Q16513),,,0.143,0.0404
PLIN3 C39 (UniProt O60664),0.285,0.237,0.347,0.198
PHKA2 C681 (UniProt P46019),-0.068,-0.219,0.63,-0.134
